Values from PubChem BioAssay AID652259 (Drosophila RNAi Screening Center, 2013)
Screen: 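Genome-wide hunt for genes that control Wingless pathway activity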 (primary screen). Cell system: Drosophila clone 8 imaginal disc epithelial cells. Reagent: long dsRNA against Drosophila genes. Challenge: pathway stimulated by co-transfected Wingless expression plasmid. Measurement: 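Firefly luciferase from a tcf-site Wingless reporter, measured alongside co-transfected Renilla luciferase that tracks transfection; pathway stimulated by a Wingless plasmid; the firefly-to-Renilla ratio is not deposited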. Reading the numbers: firefly reporter light: higher = more Wg reporter light, before normalisation; Renilla control light: higher = more transfected or surviving cells. Hit rule: 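Strong candidates differ from their plate mean by at least two out of four per-plate statistical tests; weak candidates meet just one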. Calls: active = candidate regulator (raises or lowers reporter); inactive = not a candidate.
In all, the deposit lists about 22,000 reagents; this is an unselected part of those with a known target gene and a result. Over the whole deposit, 233 (1.1%) were called active. 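Light values are raw, unnormalised plate reads; the ratio scores behind the reporter calls were not deposited.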 A plus sign joins genes that one reagent is predicted to hit. Not stated in the record: the amount of reagent, the time to read-out, the dose of the treatment.

ball (GeneID 43228) [DRSC14145] | firefly reporter light, replicate 1 = 5013; Renilla control light, replicate 1 = 1228; outcome = inactive
Hr83 (GeneID 40783) [DRSC12521] | firefly reporter light, replicate 1 = 14138; Renilla control light, replicate 1 = 3852; outcome = inactive
CG3652 (GeneID 33643) [DRSC00624] | firefly reporter light, replicate 1 = 3484; firefly reporter light, replicate 2 = 8784; Renilla control light, replicate 1 = 1140; Renilla control light, replicate 2 = 3634; outcome = inactive
CG11333 (GeneID 43714) [DRSC14301] | firefly reporter light, replicate 1 = 16299; Renilla control light, replicate 1 = 10529; outcome = inactive
Trpm (GeneID 36694) [DRSC06629] | firefly reporter light, replicate 1 = 9420; Renilla control light, replicate 1 = 1625; outcome = inactive
Trpm (GeneID 36694) [DRSC21566] | firefly reporter light, replicate 1 = 5.10e5; firefly reporter light, replicate 2 = 5.11e5; Renilla control light, replicate 1 = 2.43e5; Renilla control light, replicate 2 = 1.76e5; outcome = inactive
RanBP3 (GeneID 42804) [DRSC14217] | firefly reporter light, replicate 1 = 1584; firefly reporter light, replicate 2 = 4960; Renilla control light, replicate 1 = 682; Renilla control light, replicate 2 = 1162; outcome = inactive
CG17580 (GeneID 50228) [DRSC06683] | firefly reporter light, replicate 1 = 7833; Renilla control light, replicate 1 = 2672; outcome = inactive
CG4502 (GeneID 34002) [DRSC02755] | reporter change call, replicate 1 = Wg reporter activity lowered; firefly reporter light, replicate 1 = 4736; Renilla control light, replicate 1 = 3509; outcome = inactive
Ppat-Dpck (GeneID 38647) [DRSC09744] | firefly reporter light, replicate 1 = 908; firefly reporter light, replicate 2 = 6504; Renilla control light, replicate 1 = 960; Renilla control light, replicate 2 = 2551; outcome = inactive
Afg3l2 (GeneID 39922) [DRSC10657] | firefly reporter light, replicate 1 = 4268; Renilla control light, replicate 1 = 1657; outcome = inactive
Or67b (GeneID 39120) [DRSC11241] | firefly reporter light, replicate 1 = 4544; Renilla control light, replicate 1 = 3256; outcome = inactive
Cad88C (GeneID 41774) [DRSC15486] | firefly reporter light, replicate 1 = 8032; Renilla control light, replicate 1 = 1760; outcome = inactive
CG1889 (GeneID 31928) [DRSC18195] | firefly reporter light, replicate 1 = 3815; firefly reporter light, replicate 2 = 10294; Renilla control light, replicate 1 = 1132; Renilla control light, replicate 2 = 2909; outcome = inactive
CRIF (GeneID 40395) [DRSC11811] | firefly reporter light, replicate 1 = 17040; Renilla control light, replicate 1 = 4612; outcome = inactive
CG9920 (GeneID 41712) [DRSC16578] | firefly reporter light, replicate 1 = 18728; Renilla control light, replicate 1 = 3888; outcome = inactive
Prdm13 (GeneID 38713) [DRSC09970] | firefly reporter light, replicate 1 = 2198; firefly reporter light, replicate 2 = 11988; Renilla control light, replicate 1 = 1536; Renilla control light, replicate 2 = 4352; outcome = inactive
amd (GeneID 35188) [DRSC02608] | firefly reporter light, replicate 1 = 3565; firefly reporter light, replicate 2 = 11207; Renilla control light, replicate 1 = 1083; Renilla control light, replicate 2 = 4421; outcome = inactive
amd (GeneID 35188) [DRSC03483] | firefly reporter light, replicate 1 = 2983; firefly reporter light, replicate 2 = 6405; Renilla control light, replicate 1 = 781; Renilla control light, replicate 2 = 2179; outcome = inactive
KLHL18 (GeneID 41458) [DRSC15496] | firefly reporter light, replicate 1 = 7920; Renilla control light, replicate 1 = 2323; outcome = inactive
CG13282 (GeneID 35019) [DRSC02254] | firefly reporter light, replicate 1 = 1607; firefly reporter light, replicate 2 = 5797; Renilla control light, replicate 1 = 928; Renilla control light, replicate 2 = 2723; outcome = inactive
CG14490 (GeneID 37041) [DRSC06461] | firefly reporter light, replicate 1 = 7066; Renilla control light, replicate 1 = 2211; outcome = inactive
CG33722 + CG18749 [DRSC12674] | firefly reporter light, replicate 1 = 2913; Renilla control light, replicate 1 = 1184; outcome = inactive
CG33722 + CG18749 [DRSC15386] | firefly reporter light, replicate 1 = 15435; Renilla control light, replicate 1 = 3978; outcome = inactive
CG13465 (GeneID 50282) [DRSC10011] | firefly reporter light, replicate 1 = 7165; Renilla control light, replicate 1 = 2944; outcome = inactive

Reprinted from above (2 entries):
CG14490 (GeneID 37041) [DRSC06461] | firefly reporter light, replicate 1 = 7066; Renilla control light, replicate 1 = 2211; outcome = inactive
CG33722 + CG18749 [DRSC12674] | firefly reporter light, replicate 1 = 2913; Renilla control light, replicate 1 = 1184; outcome = inactive
